The record followed here is publication PMC6514684.

By UniProt entry, the sequences of proteins in these tests, tags left out. Where a name states a change or a piece, a line headed by the entry shows the natural chain unless it says otherwise.
UniProt Q05655: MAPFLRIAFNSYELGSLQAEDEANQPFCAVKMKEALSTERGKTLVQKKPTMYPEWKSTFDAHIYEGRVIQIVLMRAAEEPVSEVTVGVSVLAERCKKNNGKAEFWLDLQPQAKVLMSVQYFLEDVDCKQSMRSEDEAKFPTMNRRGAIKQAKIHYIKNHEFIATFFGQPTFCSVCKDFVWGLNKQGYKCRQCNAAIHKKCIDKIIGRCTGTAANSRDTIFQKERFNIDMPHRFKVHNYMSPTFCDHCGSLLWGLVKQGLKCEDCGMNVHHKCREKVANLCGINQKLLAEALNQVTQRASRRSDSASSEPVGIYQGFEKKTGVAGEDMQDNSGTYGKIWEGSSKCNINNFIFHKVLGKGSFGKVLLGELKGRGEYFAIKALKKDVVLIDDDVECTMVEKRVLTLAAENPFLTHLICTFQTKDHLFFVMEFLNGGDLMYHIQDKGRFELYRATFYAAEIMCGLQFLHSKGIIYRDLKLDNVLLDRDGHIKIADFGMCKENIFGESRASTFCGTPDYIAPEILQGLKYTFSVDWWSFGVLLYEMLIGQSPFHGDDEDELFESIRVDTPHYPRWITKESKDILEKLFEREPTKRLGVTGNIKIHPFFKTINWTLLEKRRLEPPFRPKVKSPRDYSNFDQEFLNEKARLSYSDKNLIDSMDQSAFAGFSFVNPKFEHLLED
UniProt P40763: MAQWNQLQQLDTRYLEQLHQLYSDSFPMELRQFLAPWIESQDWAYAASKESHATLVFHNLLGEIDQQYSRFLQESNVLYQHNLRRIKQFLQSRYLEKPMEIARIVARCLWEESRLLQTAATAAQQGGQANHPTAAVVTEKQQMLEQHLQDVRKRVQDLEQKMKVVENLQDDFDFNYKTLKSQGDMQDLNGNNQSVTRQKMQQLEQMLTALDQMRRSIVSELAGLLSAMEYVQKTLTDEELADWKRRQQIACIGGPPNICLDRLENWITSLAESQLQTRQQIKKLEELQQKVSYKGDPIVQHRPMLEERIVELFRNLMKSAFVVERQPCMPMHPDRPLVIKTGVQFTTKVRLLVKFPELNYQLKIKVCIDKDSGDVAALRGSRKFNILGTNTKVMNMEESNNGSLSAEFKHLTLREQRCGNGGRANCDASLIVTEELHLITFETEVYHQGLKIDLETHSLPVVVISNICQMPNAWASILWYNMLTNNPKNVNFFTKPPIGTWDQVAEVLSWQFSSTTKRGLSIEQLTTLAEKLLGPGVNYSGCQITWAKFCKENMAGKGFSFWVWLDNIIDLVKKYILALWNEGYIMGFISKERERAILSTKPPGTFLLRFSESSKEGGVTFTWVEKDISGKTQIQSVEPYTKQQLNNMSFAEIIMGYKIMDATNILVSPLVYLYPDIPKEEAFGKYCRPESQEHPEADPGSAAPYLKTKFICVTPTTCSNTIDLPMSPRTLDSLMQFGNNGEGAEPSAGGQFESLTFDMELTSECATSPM

The assay addresses protein kinase C delta (PKCδ) (human (endogenous in THP-1)) (UniProt Q05655). Description: co-IP; endogenous PKCδ immunoprecipitated from THP-1/EV and THP-1/IL-32θ cells treated with 10 nM PMA for 24 h; RIPA lysate, 1 mg lysate with 1 μg antibody, protein G-agarose; Western blot.

No constants are given. Whether binding was seen depends on the method and setting. In cells and extracts the contact can be indirect. Some entries that bind do so weakly or less than the wild type.

With “signal transducer and activator of transcription 3 (STAT3) (from UniProt P40763 1-770)”, the binding result is listed as “binds”.
